Measurements from paper doi:10.1101/2024.06.23.598940.
Results are given in words; binding and its absence hold for the method and conditions named. In cells and extracts the contact can be indirect. Some entries that bind do so weakly or less than the wild type.

Protein sequences, listed by entry. Tags and fused reporters are not part of them. Residues count along the entry.
UniProt P53762: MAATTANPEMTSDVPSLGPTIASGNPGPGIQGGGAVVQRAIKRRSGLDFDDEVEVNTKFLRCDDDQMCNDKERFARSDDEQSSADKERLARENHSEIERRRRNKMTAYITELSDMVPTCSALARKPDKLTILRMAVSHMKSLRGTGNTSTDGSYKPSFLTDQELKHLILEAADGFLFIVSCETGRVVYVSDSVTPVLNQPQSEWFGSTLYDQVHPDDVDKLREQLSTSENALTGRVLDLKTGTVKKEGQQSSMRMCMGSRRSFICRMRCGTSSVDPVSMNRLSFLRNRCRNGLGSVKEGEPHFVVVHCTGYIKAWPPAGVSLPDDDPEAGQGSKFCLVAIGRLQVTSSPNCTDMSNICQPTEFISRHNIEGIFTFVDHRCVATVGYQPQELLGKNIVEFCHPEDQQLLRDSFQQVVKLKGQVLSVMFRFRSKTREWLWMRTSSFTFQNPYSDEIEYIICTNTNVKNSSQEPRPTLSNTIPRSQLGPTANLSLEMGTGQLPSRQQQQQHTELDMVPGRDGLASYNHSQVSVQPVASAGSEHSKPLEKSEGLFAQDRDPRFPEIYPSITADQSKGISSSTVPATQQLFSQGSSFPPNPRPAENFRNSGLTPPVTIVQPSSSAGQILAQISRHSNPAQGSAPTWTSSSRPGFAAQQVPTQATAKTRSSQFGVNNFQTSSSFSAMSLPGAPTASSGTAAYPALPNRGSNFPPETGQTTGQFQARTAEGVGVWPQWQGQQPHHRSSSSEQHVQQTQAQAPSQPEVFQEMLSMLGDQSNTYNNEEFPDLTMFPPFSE
UniProt P30561, residues 10-848: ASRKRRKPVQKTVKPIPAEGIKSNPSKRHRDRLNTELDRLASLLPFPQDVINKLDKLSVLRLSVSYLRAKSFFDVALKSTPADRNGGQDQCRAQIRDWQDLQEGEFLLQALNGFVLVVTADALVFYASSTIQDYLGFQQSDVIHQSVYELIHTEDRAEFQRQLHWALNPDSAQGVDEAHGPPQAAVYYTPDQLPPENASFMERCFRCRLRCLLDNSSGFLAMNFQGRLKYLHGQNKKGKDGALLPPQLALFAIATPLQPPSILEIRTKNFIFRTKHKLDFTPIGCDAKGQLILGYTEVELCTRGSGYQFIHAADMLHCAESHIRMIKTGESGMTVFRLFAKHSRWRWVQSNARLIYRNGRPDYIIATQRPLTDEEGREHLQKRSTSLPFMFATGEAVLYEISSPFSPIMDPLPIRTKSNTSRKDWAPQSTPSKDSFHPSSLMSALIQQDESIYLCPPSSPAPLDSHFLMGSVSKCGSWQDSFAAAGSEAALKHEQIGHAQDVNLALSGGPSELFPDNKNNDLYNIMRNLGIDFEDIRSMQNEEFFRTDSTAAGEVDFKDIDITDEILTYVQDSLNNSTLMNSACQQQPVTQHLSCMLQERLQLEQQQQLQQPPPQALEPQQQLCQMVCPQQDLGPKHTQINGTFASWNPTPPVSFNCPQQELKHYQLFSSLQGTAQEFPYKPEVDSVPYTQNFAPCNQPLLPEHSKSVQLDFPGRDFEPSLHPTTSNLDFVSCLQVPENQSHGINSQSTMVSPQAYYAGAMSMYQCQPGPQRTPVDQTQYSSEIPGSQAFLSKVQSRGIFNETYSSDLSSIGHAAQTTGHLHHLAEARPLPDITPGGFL

Biological target: AhR nuclear translocator (ARNT) (mouse (endogenous in primary mouse astrocytes)) (UniProt P53762)
Assay: co-IP

binding: binds
Substance: aryl-hydrocarbon receptor (AhR) (from UniProt P30561 10-848)
